# Measured values as given in the supplement of paper PMC8728848.
# The list shows a part of the results.
# B1: MIC2 (Toxoplasma gondii), S8F9G8 (protein)
# chain: MRLQREAVFGLMFACGMWMWPSEVAGGGWSIVDALRKRYDTSRGGDANGVDTSGVEDVIQSESAIGAAEGCTNQLDICFLIDSSGSIGIQNFRLVKQFLHTFLMVLPIGPEEVNNAVVTYSTDVHLQWDLQSPNAVDKQLAAHAVLDMPYKKGSTNTSDGLKACKQILFTGSRPGREHVPKLVIGMTDGESDSDFRTVRAAKEIRELGGIVTVLAVGHYVKHSECRSMCGCSGTSDDDSPCPLYLRADWGQLATAIKPMLKEVCKTLPQDAICSDWSAWSPCSVSCGDGSQIRTRTEVSAPQPGTPTCPDCPAPMGRTCVEQGGLEEIRECSAGVCAVDAGCGVWGEWSAWSASCGNATRKRERTRYNDPPPQGAGRRCENQDPPVLQEQTEEATLAPCITIPPTPPEWAAWSDCTVTCGGGNRHRVRNALPPGLGSQNGESDESLVSKLWPGTDLRQEEACNTSPCPINATCGQFEEWSTCSVSCGGGLKTRSRNPWNEDQQHGGLSCEQQHPGGRTETITCNPQACPVDERPGEWAEWGECSVTCGDGVRERRRGKSLVEAKFGGRTIDQQNEALPEDLKIKNVEYEPCSYPACGASCTYVWSDWNKCVCPMGYQARHAAVKFDYRNKPCDLPTFETKACSCGETNPVPSEGTTPGAPGATGPEQPNQRPLPEGSDENETPTNEEGEQSKKESGSGIAGAIAGGVIGGLILLGAAGGASYHYYLSSSVGSPSAEIEYEADDGATKVVMEEEKETLVPVDDDSDMWME
# Tests used:
# Experiment in all cases: glycan array binding signal (z-score within array); higher = stronger binding
# Settings in all cases: glycan notation: IUPAC condensed, linker removed
# [1] = target: Fuc(a1-2)Gal
# Outline: (§1)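 The binding signal is a Z-score computed within each array. Data were drawn from 3228 arrays in the Consortium for Functional Glycomics database, restricted to those with a known protein sequence. Scores were averaged over arrays of the same protein sequence at different concentrations or buffers, and over linkers, and negative values can be taken as non-binding.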
# [2] = target: Fuc(a1-2)Gal(b1-3)GalNAc
# Outline: as §1
# [3] = target: Fuc(a1-2)Gal(b1-3)GalNAc(a1-3)[Fuc(a1-2)]Gal(b1-4)Glc
# Outline: as §1
# [4] = target: Fuc(a1-2)Gal(b1-3)GalNAc(a1-3)[Fuc(a1-2)]Gal(b1-4)GlcNAc
# Outline: as §1
# [5] = target: Fuc(a1-2)Gal(b1-3)GalNAc(b1-3)Gal
# Outline: as §1
# [6] = target: Fuc(a1-2)Gal(b1-3)GalNAc(b1-3)Gal(a1-4)Gal(b1-4)Glc
# Outline: as §1
# [7] = target: Fuc(a1-2)Gal(b1-3)GalNAc(b1-4)[Neu5Ac(a2-3)]Gal(b1-4)Glc
# Outline: as §1
# [8] = target: Fuc(a1-2)Gal(b1-3)GlcNAc
# Outline: as §1
# [9] = target: Fuc(a1-2)Gal(b1-3)GlcNAc(b1-2)Man(a1-3)[Fuc(a1-2)Gal(b1-3)GlcNAc(b1-2)Man(a1-6)]Man(b1-4)GlcNAc(b1-4)GlcNAc
# Outline: as §1
# [10] = target: Fuc(a1-2)Gal(b1-3)GlcNAc(b1-3)Gal(b1-4)Glc
# Outline: as §1
# [11] = target: Fuc(a1-2)Gal(b1-3)GlcNAc(b1-3)[Fuc(a1-3)[Gal(b1-4)]GlcNAc(b1-6)]Gal(b1-4)Glc
# Outline: as §1
# [12] = target: Fuc(a1-2)Gal(b1-3)[Fuc(a1-4)]GlcNAc
# Outline: as §1
# [13] = target: Fuc(a1-2)Gal(b1-3)[Fuc(a1-4)]GlcNAc(b1-2)Man(a1-3)[Fuc(a1-2)Gal(b1-3)[Fuc(a1-4)]GlcNAc(b1-2)Man(a1-6)]Man(b1-4)GlcNAc(b1-4)GlcNAc
# Outline: as §1
# [14] = target: Fuc(a1-2)Gal(b1-3)[Fuc(a1-4)]GlcNAc(b1-3)[Fuc(a1-3)[Gal(b1-4)]GlcNAc(b1-6)]Gal(b1-4)Glc
# Outline: as §1
# [15] = target: Fuc(a1-2)Gal(b1-3)[Fuc(a1-4)]GlcNAc(b1-3)[Gal(b1-4)GlcNAc(b1-6)]Gal(b1-4)Glc
# Outline: as §1
# [16] = target: Fuc(a1-2)Gal(b1-4)Glc
# Outline: as §1
# [17] = target: Fuc(a1-2)Gal(b1-4)Glc6S
# Outline: as §1
# [18] = target: Fuc(a1-2)Gal(b1-4)GlcNAc
# Outline: as §1
# [19] = target: Fuc(a1-2)Gal(b1-4)GlcNAc(b1-2)Man(a1-3)[Fuc(a1-2)Gal(b1-4)GlcNAc(b1-2)Man(a1-6)]Man(b1-4)GlcNAc(b1-4)GlcNAc
# Outline: as §1
# [20] = target: Fuc(a1-2)Gal(b1-4)GlcNAc(b1-3)Gal(b1-4)GlcNAc
# Outline: as §1
# [21] = target: Fuc(a1-2)Gal(b1-4)GlcNAc(b1-3)Gal(b1-4)GlcNAc(b1-3)Gal(b1-4)GlcNAc
# Outline: as §1
# [22] = target: Fuc(a1-2)Gal(b1-4)GlcNAc(b1-3)GalNAc
# Outline: as §1
# [23] = target: Fuc(a1-2)Gal(b1-4)GlcNAc6S
# Outline: as §1
# [24] = target: Fuc(a1-2)Gal(b1-4)[Fuc(a1-3)]GlcNAc
# Outline: as §1
# [25] = target: Fuc(a1-2)Gal(b1-4)[Fuc(a1-3)]GlcNAc(b1-2)Man(a1-3)[Fuc(a1-2)Gal(b1-4)[Fuc(a1-3)]GlcNAc(b1-2)Man(a1-6)]Man(b1-4)GlcNAc(b1-4)GlcNAc
# Outline: as §1
# [26] = target: Fuc(a1-2)Gal(b1-4)[Fuc(a1-3)]GlcNAc(b1-3)Gal(b1-4)[Fuc(a1-3)]GlcNAc
# Outline: as §1
# [27] = target: Fuc(a1-2)Gal(b1-4)[Fuc(a1-3)]GlcNAc(b1-3)Gal(b1-4)[Fuc(a1-3)]GlcNAc(b1-3)Gal(b1-4)[Fuc(a1-3)]GlcNAc
# Outline: as §1
# [28] = target: Fuc(a1-2)Gal6S(b1-4)Glc
# Outline: as §1
# [29] = target: Fuc(a1-2)Gal6S(b1-4)Glc6S
# Outline: as §1
# [30] = target: Fuc(a1-2)Gal6S(b1-4)GlcNAc
# Outline: as §1
# [31] = target: Fuc(a1-2)[Gal(a1-3)]Gal
# Outline: as §1
# [32] = target: Fuc(a1-2)[Gal(a1-3)]Gal(b1-3)GlcNAc
# Outline: as §1
# [33] = target: Fuc(a1-2)[Gal(a1-3)]Gal(b1-3)GlcNAc(b1-2)Man(a1-3)[Fuc(a1-2)[Gal(a1-3)]Gal(b1-3)GlcNAc(b1-2)Man(a1-6)]Man(b1-4)GlcNAc(b1-4)GlcNAc
# Outline: as §1
# [34] = target: Fuc(a1-2)[Gal(a1-3)]Gal(b1-4)Glc
# Outline: as §1
# [35] = target: Fuc(a1-2)[Gal(a1-3)]Gal(b1-4)GlcNAc
# Outline: as §1
# [36] = target: Fuc(a1-2)[Gal(a1-3)]Gal(b1-4)GlcNAc(b1-2)Man(a1-3)[Fuc(a1-2)[Gal(a1-3)]Gal(b1-4)GlcNAc(b1-2)Man(a1-6)]Man(b1-4)GlcNAc(b1-4)GlcNAc
# Outline: as §1
# [37] = target: Fuc(a1-2)[Gal(a1-3)]Gal(b1-4)[Fuc(a1-3)]GlcNAc
# Outline: as §1
# [38] = target: Fuc(a1-2)[Gal(a1-4)]Gal(b1-4)GlcNAc
# Outline: as §1
# [39] = target: Fuc(a1-2)[GalNAc(a1-3)]Gal
# Outline: as §1
# [40] = target: Fuc(a1-2)[GalNAc(a1-3)]Gal(b1-3)GalNAc(a1-3)[Fuc(a1-2)]Gal(b1-4)GlcNAc
# Outline: as §1
# [41] = target: Fuc(a1-2)[GalNAc(a1-3)]Gal(b1-3)GlcNAc
# Outline: as §1
# [42] = target: Fuc(a1-2)[GalNAc(a1-3)]Gal(b1-3)GlcNAc(b1-2)Man(a1-3)[Fuc(a1-2)[GalNAc(a1-3)]Gal(b1-3)GlcNAc(b1-2)Man(a1-6)]Man(b1-4)GlcNAc(b1-4)GlcNAc
# Outline: as §1
# [43] = target: Fuc(a1-2)[GalNAc(a1-3)]Gal(b1-4)Glc
# Outline: as §1
# [44] = target: Fuc(a1-2)[GalNAc(a1-3)]Gal(b1-4)GlcNAc
# Outline: as §1
# [45] = target: Fuc(a1-2)[GalNAc(a1-3)]Gal(b1-4)GlcNAc(b1-2)Man(a1-3)[Fuc(a1-2)[GalNAc(a1-3)]Gal(b1-4)GlcNAc(b1-2)Man(a1-6)]Man(b1-4)GlcNAc(b1-4)GlcNAc
# Outline: as §1
binder,measurement,setting,value
B1,glycan array binding signal (z-score),[1],-0.939
same,glycan array binding signal (z-score),[2],-0.56
same,glycan array binding signal (z-score),[3],0.334
same,glycan array binding signal (z-score),[4],0.72
same,glycan array binding signal (z-score),[5],1.55
same,glycan array binding signal (z-score),[6],0.859
same,glycan array binding signal (z-score),[7],-0.521
same,glycan array binding signal (z-score),[8],-0.642
same,glycan array binding signal (z-score),[9],-0.799
same,glycan array binding signal (z-score),[10],-0.779
same,glycan array binding signal (z-score),[11],-0.526
same,glycan array binding signal (z-score),[12],0.282
same,glycan array binding signal (z-score),[13],2.4
same,glycan array binding signal (z-score),[14],-0.651
same,glycan array binding signal (z-score),[15],-1.05
same,glycan array binding signal (z-score),[16],-0.954
same,glycan array binding signal (z-score),[17],0.437
same,glycan array binding signal (z-score),[18],-0.869
same,glycan array binding signal (z-score),[19],-0.517
same,glycan array binding signal (z-score),[20],0.079
same,glycan array binding signal (z-score),[21],-0.647
same,glycan array binding signal (z-score),[22],-0.541
same,glycan array binding signal (z-score),[23],0.297
same,glycan array binding signal (z-score),[24],0.037
same,glycan array binding signal (z-score),[25],1.29
same,glycan array binding signal (z-score),[26],0.181
same,glycan array binding signal (z-score),[27],-0.232
same,glycan array binding signal (z-score),[28],0.99
same,glycan array binding signal (z-score),[29],-0.577
same,glycan array binding signal (z-score),[30],0.325
same,glycan array binding signal (z-score),[31],-0.292
same,glycan array binding signal (z-score),[32],0.239
same,glycan array binding signal (z-score),[33],-1.04
same,glycan array binding signal (z-score),[34],-0.944
same,glycan array binding signal (z-score),[35],-0.592
same,glycan array binding signal (z-score),[36],0.032
same,glycan array binding signal (z-score),[37],0.093
same,glycan array binding signal (z-score),[38],-0.707
same,glycan array binding signal (z-score),[39],-0.489
same,glycan array binding signal (z-score),[40],0.43
same,glycan array binding signal (z-score),[41],0.132
same,glycan array binding signal (z-score),[42],-0.875
same,glycan array binding signal (z-score),[43],0.169
same,glycan array binding signal (z-score),[44],0.413
same,glycan array binding signal (z-score),[45],-0.937

# An excerpt from the list above, for reference:
binder,measurement,setting,value
B1,glycan array binding signal (z-score),[1],-0.939
same,glycan array binding signal (z-score),[2],-0.56
same,glycan array binding signal (z-score),[3],0.334
